Test results: PMC6989403
No constants are given. Whether binding was seen depends on the method and setting. In cells and extracts the contact can be indirect. Some binding calls cover weakened binding; strength is not graded here. For part of these data: Where a sequence is shown, tags or fusion partners need not be part of it.

T1: Myc-tagged LATS1 (large tumor suppressor kinase 1), wild type (human) (UniProt O95835)
T1 sequence: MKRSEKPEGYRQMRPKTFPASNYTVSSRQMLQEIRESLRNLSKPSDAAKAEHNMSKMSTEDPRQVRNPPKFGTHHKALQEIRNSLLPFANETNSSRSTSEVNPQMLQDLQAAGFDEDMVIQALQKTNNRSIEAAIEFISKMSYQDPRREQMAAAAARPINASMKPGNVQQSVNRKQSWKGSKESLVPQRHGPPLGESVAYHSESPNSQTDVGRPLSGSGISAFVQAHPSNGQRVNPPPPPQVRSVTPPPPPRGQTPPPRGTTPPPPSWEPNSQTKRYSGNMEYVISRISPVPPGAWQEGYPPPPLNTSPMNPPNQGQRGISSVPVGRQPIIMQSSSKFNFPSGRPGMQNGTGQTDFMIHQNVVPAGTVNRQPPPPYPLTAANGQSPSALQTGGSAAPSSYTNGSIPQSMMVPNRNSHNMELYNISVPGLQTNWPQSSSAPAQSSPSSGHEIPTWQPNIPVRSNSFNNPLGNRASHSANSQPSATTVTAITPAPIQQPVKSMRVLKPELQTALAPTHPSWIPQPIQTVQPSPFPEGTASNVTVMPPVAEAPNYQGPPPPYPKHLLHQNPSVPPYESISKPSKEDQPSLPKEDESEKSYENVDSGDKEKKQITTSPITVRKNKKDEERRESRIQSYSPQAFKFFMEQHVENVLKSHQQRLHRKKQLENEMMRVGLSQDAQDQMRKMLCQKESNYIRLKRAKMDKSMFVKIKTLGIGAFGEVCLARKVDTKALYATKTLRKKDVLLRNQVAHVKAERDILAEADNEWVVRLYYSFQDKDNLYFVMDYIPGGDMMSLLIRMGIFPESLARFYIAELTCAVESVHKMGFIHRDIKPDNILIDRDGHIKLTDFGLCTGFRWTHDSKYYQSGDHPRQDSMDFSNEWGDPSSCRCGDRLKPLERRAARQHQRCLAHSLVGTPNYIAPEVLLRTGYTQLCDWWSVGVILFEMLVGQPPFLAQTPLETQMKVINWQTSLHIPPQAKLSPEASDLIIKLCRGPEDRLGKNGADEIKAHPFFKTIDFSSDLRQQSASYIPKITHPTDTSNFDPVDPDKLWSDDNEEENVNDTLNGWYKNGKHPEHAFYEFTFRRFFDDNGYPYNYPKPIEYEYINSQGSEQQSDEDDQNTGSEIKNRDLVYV

T2: LATS1, endogenous (human (endogenous in U87MG, U251, GBM#P3, HEK293)) (UniProt O95835)
T2 sequence: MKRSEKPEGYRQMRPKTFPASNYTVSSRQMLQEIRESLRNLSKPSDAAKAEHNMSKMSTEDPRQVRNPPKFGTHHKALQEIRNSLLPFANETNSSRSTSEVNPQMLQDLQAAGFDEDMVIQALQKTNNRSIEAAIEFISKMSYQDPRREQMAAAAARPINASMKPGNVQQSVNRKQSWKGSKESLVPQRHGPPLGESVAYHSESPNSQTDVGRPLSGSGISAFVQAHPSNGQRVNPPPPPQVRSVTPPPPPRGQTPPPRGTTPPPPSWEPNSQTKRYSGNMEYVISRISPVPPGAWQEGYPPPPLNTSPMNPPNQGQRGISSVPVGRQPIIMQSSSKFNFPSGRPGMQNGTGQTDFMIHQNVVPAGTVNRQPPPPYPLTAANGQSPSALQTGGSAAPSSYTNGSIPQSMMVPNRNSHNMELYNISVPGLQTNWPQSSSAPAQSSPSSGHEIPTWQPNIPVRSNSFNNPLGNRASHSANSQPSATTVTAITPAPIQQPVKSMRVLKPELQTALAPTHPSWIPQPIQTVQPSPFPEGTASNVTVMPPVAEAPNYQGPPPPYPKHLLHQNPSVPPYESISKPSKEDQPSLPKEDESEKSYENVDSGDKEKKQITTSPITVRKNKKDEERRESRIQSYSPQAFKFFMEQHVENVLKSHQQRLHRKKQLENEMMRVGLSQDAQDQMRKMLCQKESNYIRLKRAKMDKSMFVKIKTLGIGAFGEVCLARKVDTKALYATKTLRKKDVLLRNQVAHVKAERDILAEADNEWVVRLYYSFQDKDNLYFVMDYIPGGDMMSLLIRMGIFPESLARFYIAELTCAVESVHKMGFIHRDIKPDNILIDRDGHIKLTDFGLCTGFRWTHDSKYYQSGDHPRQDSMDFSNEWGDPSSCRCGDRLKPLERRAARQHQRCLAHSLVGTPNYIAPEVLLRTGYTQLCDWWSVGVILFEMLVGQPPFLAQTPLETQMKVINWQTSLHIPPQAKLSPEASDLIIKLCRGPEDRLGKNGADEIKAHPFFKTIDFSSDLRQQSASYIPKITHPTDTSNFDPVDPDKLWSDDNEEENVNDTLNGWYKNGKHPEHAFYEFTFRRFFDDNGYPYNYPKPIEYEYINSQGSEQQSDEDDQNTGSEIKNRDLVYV


Experiments:
[1] = biological target: T1, Myc-tagged LATS1 (large tumor suppressor kinase 1), wild type (human); test: co-IP; HEK293 cells co-transfected with Flag-PMEPA1a and Myc-LATS1 constructs; IP with anti-Flag or anti-Myc; RIPA lysate, antibody overnight at 4 °C, Protein A/G magnetic beads; western blot
[2] = biological target: T2, LATS1, endogenous (human (endogenous in U87MG, U251, GBM#P3, HEK293)); test: co-IP; endogenous proteins in GBM#P3 cells; western blot
[3] = biological target: T2, LATS1, endogenous (human (endogenous in U87MG, U251, GBM#P3, HEK293)); test: co-IP; endogenous proteins in parental U251 and U87MG cells; IP with PMEPA1 or LATS1 antibody; RIPA lysate; western blot

Row | binding [1] | binding [2] | binding [3] | Binder
1 | binds |  |  | Flag-tagged PMEPA1a (prostate transmembrane protein, androgen induced 1, isoform a), wild type (protein, UniProt Q969W9 1-287) MHRLMGVNSTAAAAAGQPNVSCTCNCKRSLFQSMEITELEFVQIIIIVVVMMVMVVVITCLLSHYKLSARSFISRHSQGRRREDALSSEGCLWPSESTVSGNGIPEPQVYAPPRPTDRLAVPPFAQRERFHRFQPTYPYLQHEIDLPPTISLSDGEEPPPYQGPCTLQLRDPEQQLELNRESVRAPPNRTIFDSDLMDSARLGGPCPPSSNSGISATCYGSGGRMEGPPPTYSEVIGHYPGSSFQHQQSSGPPSLLEGTRLHHTHIAPLESAAIWSKEKDKQKGHPL
2 |  | binds | binds | PMEPA1, endogenous in glioma cells (protein, UniProt Q969W9 1-287) MHRLMGVNSTAAAAAGQPNVSCTCNCKRSLFQSMEITELEFVQIIIIVVVMMVMVVVITCLLSHYKLSARSFISRHSQGRRREDALSSEGCLWPSESTVSGNGIPEPQVYAPPRPTDRLAVPPFAQRERFHRFQPTYPYLQHEIDLPPTISLSDGEEPPPYQGPCTLQLRDPEQQLELNRESVRAPPNRTIFDSDLMDSARLGGPCPPSSNSGISATCYGSGGRMEGPPPTYSEVIGHYPGSSFQHQQSSGPPSLLEGTRLHHTHIAPLESAAIWSKEKDKQKGHPL
